No constants are given. Whether binding was seen depends on the method and setting. Some binding calls cover weakened binding; strength is not graded here.
The binders below were run against ErbB3 (UniProt P21860) (assay: MRD screen, Example 48).

Amino acid sequences for entries named in this document (tags omitted). Residues count along the entry.
UniProt P21860, residues 20-643: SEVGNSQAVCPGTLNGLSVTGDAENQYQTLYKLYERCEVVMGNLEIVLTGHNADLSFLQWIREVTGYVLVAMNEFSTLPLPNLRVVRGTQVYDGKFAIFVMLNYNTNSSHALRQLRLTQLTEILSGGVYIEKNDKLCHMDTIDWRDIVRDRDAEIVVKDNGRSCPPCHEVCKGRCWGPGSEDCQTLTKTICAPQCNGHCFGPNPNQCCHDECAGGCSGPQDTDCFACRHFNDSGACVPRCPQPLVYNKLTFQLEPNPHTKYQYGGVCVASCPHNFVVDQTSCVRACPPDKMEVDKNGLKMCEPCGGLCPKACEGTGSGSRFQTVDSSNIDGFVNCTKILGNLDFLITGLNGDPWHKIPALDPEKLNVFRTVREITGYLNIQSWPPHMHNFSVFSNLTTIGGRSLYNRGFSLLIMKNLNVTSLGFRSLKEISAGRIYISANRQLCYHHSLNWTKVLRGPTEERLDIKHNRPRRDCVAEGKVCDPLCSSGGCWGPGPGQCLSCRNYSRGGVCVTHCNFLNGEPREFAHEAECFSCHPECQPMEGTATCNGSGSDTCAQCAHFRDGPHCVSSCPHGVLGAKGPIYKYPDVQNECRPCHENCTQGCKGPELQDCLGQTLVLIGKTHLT

binding, binds:
FGEPYCPFLNPTWKAECLVRS [EGC934], VEPYCPFLNPTWKDACLART [EGC904], GYAPYCPFLNPIWKNECITRT [EGC939], ASEPYCPFLNPTWKEQCIART [EGC911], YSEPYCPFLNPIWKEQCIART [EGC933], DADPYCPFLNPTWKAECLARS [EGC898], IIEPYCPFVNPNWKAQCIARS [EGC900], GSNPYCPFLNPIWKEACLART [EGC921], MSEPYCPFLNPIWKEQCIARS [EGC896], TSEPYCPFLNPIWKEQCITRT [EGC903], TSEPYCPFLNPTWKDECIARM [EGC906], INEPYCPFQNPFWYAECLART [EGC922], YNKPYCPFQNPTWKEACLARS [EGC882], YREPYCPFQNPYWKDQCIARY [EGC879], TSEPYCPFLNPTWKEHCMART [EGC920], ASEPYCPFINPTWKDECIARS [EGC925], YREPYCPFLNPTWKEQCIARS [EGC908], VSEPYCPFMNPIWKAECLSRT [EGC931], SSEPYCPFLNPTWKAECIARS [EGC883], RSEPYCPFLNPTWKAECIARS [EGC890], RSEPYCPFLNPIWKDHCIART [EGC889], LSEPYCPFQNPIWKDKCIAMS [EGC884], LREPYCPFLNPTWKEQCLVRT [EGC935], SIEPYCPFLNPTWKEQCIARS [EGC916], SHEPYCPFQNPIWKAECLART [EGC937], EREPYCPFLNPIWLEQCLSRT [EGC932], RGEPYCPFLNPAWKNECLART [EGC899], RGEPYCPFKNPTWKYQCLART [EGC929], RTEPYCPFLNPTWKEQCIARS [EGC917], TSDPYCPFLNPIWKEQCIVRT [EGC892], LNDPYCPFLNPIWKEQCMSRY [EGC938], FTEPYCPFINPTWKAECIARS [EGC902], LREPYCPFLNPTWKAECIARS [EGC894], SSEPYCPFLNPKWKHECIARS [EGC913], IREPYCPFLNPIWKAHCIALT [EGC930], RIEPYCPFVNPTWKDQCLART [EGC915], SNEPYCPFLNPTWKAQCLARM [EGC907], SYEPYCPFLNPTWKAECIARI [EGC885], SSDPYCPFLNPTWKQQCIERS [EGC910], RGEPYCPFTNPIWKEQCINRS [EGC897], MSRPYCPFLNPIWKEQCIART [EGC881], TDETYCPFKNPIWYEECIARS [EGC928], GSEPYCPFLNPTWKEQCLARL [EGC895], IREPYCPFLNPSWKAECIARS [EGC924], GSEPYCPFLNPIWKAECIARS [EGC914], GSEPYCPFLNPTWKEQCIIRT [EGC886], TSEPYCPFGNPIWKKECIART [EGC905], EREPYCPFLNPTWKEQCLARH [EGC893], SSEPYCPFLNPTWKSQCIARS [EGC888], YSEPYCPFLNPTWKAECIART [EGC919], STDPYCPFLNPVWNYQCIART [EGC936], TREPYCPFLNPTWLDQCIART [EGC923], LNAPYCPFLNPNWYDQCIHRS [EGC909], FSEPYCPFVNPYWKEQCIART [EGC940], LSEPYCPFQNPTWYDECISRS [EGC912], AIEPYCPFLNPIWKDQCLARI [EGC880], SREPYCPFLNPIWKDKCISRT [EGC891], PSEPYCPFLNPTWKDQCLQRS [EGC918], MKEPYCPFLNPTWKAQCIART [EGC927], EDEPYCPFLNPIWKAQCLART [EGC901], GYEPYCPFLNPIWKAECKARS [EGC942], HTEPYCPFLNPTWKEQCLARF [EGC941]

From patent US20160046678A1 (ZYNGENIA, published 2016)
